PubChem BioAssay AID1259331 – Drosophila RNAi Screening Center | 2017

Test: 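Fly transmembrane-protein genes that affect zinc toxicity in cultured cells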 (primary screen)
Cells: Drosophila S2R+ cells
Knock-down reagent: long dsRNA against Drosophila genes
Time to read-out: 5 days (4 days knock-down, then 1 day zinc)
Challenge: zinc chloride at 15 mM final level for 1 day
Measured: 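Luminescent ATP assay standing in for viability; Z score is the mean over three replicate plates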
Scale: mean Z score: higher = more ATP than other wells, better survival under zinc; ATP luminescence: higher = more ATP, more viable cells
Rule for the call: 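a reagent is called a hit when its Z score is above 1.5 or below -1.5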
Calls: active = hit, ATP up or down; inactive = not a hit
Shown is a random part of about 3,100 reagents. Of all reagents, 126 (4.1%) were called active. 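Calls are per reagent; zinc was so toxic that few knock-downs lowered ATP further, so most hits raise ATP.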 Raw values vary from plate to plate and are shown uncorrected. The numbers tell different reagents against one gene apart. A plus sign joins genes that one reagent is predicted to hit. Reagent sequences are not shown. The record does not give: the amount of reagent.

gene	dsRNA no.	mean Z score	ATP luminescence, replicate 1	ATP luminescence, replicate 2	outcome
CG3149	1	0.0401	47406	44462	inactive
CG3149	2	0.311	68778	61123	inactive
frac	1	-0.321	29396	29119	inactive
frac	2	0.632	72661	69567	inactive
kkv	1	0.227	37519	30573	inactive
Gr93a	1	0.221	36478	60649	inactive
Gr93a	2	-0.153	56568	51995	inactive
CG5348	1	-0.419	67134	66320	inactive
CG5348	2	0.33	59432	67879	inactive
PGRP-LC	1	-0.227	30473	48114	inactive
PGRP-LC	2	0.0673	77662	62278	inactive
PGRP-LC	3	-0.27	72539	57682	inactive
PGRP-LC	4	-0.823	45016	52463	inactive
Ir60a	1	0.157	52178	42782	inactive
Ir60a	2	0.935	63907	64919	inactive
SK	1	-0.505	64709	66719	inactive
SK	2	0.265	41633	42491	inactive
SK	3	-0.37	59792	60049	inactive
SK	4	-0.0109	57151	58716	inactive
rg	1	-0.581	39214	38033	inactive
rg	2	0.52	74592	74747	inactive
rg	3	-0.279	49263	65056	inactive
rg	4	0.0681	50618	48612	inactive
rg	5	-0.194	41102	52775	inactive
CG10182	1	-0.0699	34759	53927	inactive
CG9536	1	-0.13	55556	53138	inactive
CG9536	2	-0.0934	40896	62827	inactive
PIG-Wa	1	-0.518	37639	40149	inactive
CG5002	1	-0.0423	28330	36850	inactive
ppk	1	0.0558	50223	45320	inactive
ppk	2	0.205	57700	60581	inactive
bves	1	0.0813	43578	49435	inactive
bves	2	-0.0863	39820	43907	inactive
CG31100	1	0.269	36542	60967	inactive
CG31100	2	0.0354	39730	56191	inactive
Nup44A	1	-0.41	29067	30130	inactive
Nup44A	2	0.149	67446	60701	inactive
CG31729	1	-0.325	49400	54013	inactive
CG31729	2	-0.586	40022	40547	inactive
CG31729	3	0.822	65725	69161	inactive
CadN	1	-1.18	34433	36130	inactive
CadN	2	-0.502	52024	50103	inactive
TrissinR	1	-0.594	52024	52463	inactive
TrissinR	2	0.456	65657	62776	inactive
CG31262	1	-0.399	33579	53618	inactive
CG31262	2	-0.312	49848	53893	inactive
Cngl	1	2.18	91858	1.13e5	active
Cngl	2	0.341	59997	60632	inactive
stj	1	0.136	35993	32547	inactive
Duox	1	-0.586	36253	40332	inactive
Duox	2	0.877	78066	64919	inactive
CG31668	1	0.152	46623	48046	inactive
CG31668	2	-0.124	52024	53104	inactive
mthl3 + mthl4	1	-0.154	52230	51492	inactive
ort	1	-0.134	39216	58471	inactive
ort	2	0.812	71402	79961	inactive
CG2698	1	-0.0709	36798	56966	inactive
CG2698	2	-0.144	56756	56859	inactive
CG12914	1	-0.092	77354	66754	inactive
CG9825	1	0.177	50652	45217	inactive
CG9825	2	-0.0501	54579	52950	inactive
CG3216	1	-0.527	43341	40176	inactive
CG3216	2	-0.192	58574	58300	inactive
fusl	1	-0.512	46880	51233	inactive
fusl	2	0.883	70733	79360	inactive
ru	1	-0.000715	68298	75883	inactive
ru	2	1.29	81676	80925	inactive
CNT1	1	-0.201	95468	70716	inactive
CNT1	2	-0.247	49606	65708	inactive

Limited to “ATP luminescence, replicate 2” (8 entries from above):
CG31729 #2	40547
CG31729 #3	69161
CadN #1	36130
CadN #2	50103
TrissinR #1	52463
TrissinR #2	62776
CG31262 #1	53618
CG31262 #2	53893
